The source of these data is patent US20240124590A1.

This experiment addresses cynomolgus monkey PD1 human Fc tagged recombinant protein (cynomolgus monkey). Nature of the experiment: direct ELISA, Fab on coated PD1-Fc.

Results are given in words; binding and its absence hold for the method and conditions named. Some results given as binding are weak or reduced against the parent protein; the word gives no strength.

B1: Fab-Mab005 (Fab, V domains shown)
VH: EVQLVESGGGLVQPGGSLRLSCAASGFTFSSYMMSWVRQAPGKGLEWVATISGGGANTYYPDSVKGRFTISRDNAKNSLYLQMNSLRAEDTAVYYCARQLYYFDYWGQGTTVTVSS
VL: DIQMTQSPSSLSASVGDRVTITCLASQTIGTWLTWYQQKPGKAPKLLIYTATSLADGVPSRFSGSGSGTDFTLTISSLQPEDFATYYCQQVYSIPWTFGGGTKVEIK
Consider B1, for which the binding entry is “binds”.
